Consider 1 substance from publication PMC8019791.

No constants are given. Whether binding was seen depends on the method and setting. Binding seen in cells or lysates may run through a third protein. A result given as binding can be weak or reduced; the word gives no strength. Tags and fused reporters may be left off the sequences shown.

For the test, the target named is T1, CC IFT20-GST (UniProt Q8IY31).
T1 sequence: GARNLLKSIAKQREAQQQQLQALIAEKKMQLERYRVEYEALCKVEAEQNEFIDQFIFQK
Put plainly: pull-down; recombinant GST fusion proteins on GSH-Sepharose incubated 2 h at 4°C with precleared postnuclear supernatants of Jurkat cells (5 x 10^7 cells/sample, 0.5% Triton X-100); 4 washes; immunoblot; only the target purified.

Take Rab5 (human (endogenous in Jurkat)): the binding result is recorded as “binds”.
